Consider 21 targets from the supplement of paper PMC10849652.

Protein sequences, listed by entry. Tags and fused reporters are not part of them. Lines headed by an entry give the natural chain unless they say otherwise; changes in a name come on top.
UniProt O94806: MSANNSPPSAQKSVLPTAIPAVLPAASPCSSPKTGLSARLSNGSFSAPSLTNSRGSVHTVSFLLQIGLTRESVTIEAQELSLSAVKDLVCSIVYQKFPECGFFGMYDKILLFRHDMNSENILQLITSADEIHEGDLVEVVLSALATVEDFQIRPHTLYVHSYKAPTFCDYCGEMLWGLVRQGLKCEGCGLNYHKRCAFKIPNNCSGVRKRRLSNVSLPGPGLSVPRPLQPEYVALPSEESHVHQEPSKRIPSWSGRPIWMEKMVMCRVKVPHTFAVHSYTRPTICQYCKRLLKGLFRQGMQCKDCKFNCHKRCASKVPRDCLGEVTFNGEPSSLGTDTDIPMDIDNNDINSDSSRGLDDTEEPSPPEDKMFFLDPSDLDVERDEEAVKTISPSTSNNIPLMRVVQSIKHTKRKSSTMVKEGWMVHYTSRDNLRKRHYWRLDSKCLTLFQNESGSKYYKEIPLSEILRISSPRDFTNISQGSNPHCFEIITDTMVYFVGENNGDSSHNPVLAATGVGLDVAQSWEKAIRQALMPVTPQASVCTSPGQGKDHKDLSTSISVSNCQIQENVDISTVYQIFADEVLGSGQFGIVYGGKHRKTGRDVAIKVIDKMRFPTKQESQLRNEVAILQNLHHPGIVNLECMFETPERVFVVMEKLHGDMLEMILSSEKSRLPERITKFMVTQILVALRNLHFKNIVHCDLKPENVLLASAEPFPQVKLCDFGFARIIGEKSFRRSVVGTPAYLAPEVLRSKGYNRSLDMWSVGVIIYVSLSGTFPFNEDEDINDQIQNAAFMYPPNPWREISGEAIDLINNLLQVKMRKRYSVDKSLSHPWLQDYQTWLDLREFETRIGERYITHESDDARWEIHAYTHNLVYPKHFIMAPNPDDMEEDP
UniProt O60237: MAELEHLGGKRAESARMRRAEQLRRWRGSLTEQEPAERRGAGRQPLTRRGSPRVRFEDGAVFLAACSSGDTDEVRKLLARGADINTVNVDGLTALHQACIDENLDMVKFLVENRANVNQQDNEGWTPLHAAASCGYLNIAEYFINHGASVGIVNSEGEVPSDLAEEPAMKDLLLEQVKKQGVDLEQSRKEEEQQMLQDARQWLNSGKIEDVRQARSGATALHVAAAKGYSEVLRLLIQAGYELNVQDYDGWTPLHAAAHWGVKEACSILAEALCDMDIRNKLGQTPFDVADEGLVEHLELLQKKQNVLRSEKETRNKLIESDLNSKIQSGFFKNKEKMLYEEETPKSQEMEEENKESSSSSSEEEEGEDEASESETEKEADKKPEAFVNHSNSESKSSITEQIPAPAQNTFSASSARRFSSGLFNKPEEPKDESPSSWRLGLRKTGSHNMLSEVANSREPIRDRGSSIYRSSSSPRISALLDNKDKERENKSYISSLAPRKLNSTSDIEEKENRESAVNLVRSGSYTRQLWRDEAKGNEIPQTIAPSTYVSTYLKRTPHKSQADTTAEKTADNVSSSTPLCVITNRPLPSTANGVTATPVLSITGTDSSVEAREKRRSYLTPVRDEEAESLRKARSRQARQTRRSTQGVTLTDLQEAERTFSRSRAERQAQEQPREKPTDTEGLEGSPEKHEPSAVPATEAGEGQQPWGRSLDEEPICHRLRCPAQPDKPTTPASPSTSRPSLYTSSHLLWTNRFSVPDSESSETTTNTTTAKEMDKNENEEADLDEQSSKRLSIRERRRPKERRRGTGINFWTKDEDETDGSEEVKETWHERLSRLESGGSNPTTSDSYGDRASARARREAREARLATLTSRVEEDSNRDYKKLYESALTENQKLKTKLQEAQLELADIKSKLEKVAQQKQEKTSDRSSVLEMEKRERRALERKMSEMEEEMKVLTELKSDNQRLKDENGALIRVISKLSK
UniProt Q96I34: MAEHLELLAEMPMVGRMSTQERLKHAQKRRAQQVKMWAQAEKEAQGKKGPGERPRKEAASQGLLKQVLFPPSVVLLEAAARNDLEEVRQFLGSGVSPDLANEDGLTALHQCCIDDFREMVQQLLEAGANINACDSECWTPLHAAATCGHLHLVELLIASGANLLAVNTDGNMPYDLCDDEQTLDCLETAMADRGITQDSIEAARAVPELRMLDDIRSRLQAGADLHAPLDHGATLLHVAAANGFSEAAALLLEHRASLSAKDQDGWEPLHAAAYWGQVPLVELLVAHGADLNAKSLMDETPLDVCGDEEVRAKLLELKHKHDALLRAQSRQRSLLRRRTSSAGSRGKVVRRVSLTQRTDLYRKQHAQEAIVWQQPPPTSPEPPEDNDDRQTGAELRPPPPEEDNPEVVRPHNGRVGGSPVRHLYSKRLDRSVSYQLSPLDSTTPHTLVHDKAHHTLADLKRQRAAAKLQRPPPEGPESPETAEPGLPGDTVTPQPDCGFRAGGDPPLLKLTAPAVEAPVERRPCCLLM
UniProt Q2NL68: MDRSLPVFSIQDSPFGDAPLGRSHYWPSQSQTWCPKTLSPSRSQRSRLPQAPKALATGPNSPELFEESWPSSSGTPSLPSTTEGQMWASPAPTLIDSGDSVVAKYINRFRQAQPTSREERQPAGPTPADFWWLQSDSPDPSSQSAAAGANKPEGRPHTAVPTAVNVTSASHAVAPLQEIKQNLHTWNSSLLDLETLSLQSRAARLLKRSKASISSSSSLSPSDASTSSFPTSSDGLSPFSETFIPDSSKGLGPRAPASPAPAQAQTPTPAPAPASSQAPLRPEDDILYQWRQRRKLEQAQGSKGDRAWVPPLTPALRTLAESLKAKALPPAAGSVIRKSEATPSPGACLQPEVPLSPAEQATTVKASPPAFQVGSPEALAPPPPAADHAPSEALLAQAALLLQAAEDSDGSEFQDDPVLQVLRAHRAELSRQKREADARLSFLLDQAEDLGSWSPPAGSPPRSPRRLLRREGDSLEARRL
UniProt Q9Y570: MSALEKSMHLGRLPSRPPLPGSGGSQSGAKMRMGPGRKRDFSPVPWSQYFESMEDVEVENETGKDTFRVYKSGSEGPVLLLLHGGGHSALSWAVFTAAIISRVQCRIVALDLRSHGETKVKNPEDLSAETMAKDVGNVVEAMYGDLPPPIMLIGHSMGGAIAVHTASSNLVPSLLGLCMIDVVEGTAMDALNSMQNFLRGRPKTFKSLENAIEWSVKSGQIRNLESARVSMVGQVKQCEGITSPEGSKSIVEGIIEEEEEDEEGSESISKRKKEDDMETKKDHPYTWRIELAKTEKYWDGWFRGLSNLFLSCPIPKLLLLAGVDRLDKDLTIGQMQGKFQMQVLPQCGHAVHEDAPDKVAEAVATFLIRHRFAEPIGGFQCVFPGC
UniProt Q5H9R7: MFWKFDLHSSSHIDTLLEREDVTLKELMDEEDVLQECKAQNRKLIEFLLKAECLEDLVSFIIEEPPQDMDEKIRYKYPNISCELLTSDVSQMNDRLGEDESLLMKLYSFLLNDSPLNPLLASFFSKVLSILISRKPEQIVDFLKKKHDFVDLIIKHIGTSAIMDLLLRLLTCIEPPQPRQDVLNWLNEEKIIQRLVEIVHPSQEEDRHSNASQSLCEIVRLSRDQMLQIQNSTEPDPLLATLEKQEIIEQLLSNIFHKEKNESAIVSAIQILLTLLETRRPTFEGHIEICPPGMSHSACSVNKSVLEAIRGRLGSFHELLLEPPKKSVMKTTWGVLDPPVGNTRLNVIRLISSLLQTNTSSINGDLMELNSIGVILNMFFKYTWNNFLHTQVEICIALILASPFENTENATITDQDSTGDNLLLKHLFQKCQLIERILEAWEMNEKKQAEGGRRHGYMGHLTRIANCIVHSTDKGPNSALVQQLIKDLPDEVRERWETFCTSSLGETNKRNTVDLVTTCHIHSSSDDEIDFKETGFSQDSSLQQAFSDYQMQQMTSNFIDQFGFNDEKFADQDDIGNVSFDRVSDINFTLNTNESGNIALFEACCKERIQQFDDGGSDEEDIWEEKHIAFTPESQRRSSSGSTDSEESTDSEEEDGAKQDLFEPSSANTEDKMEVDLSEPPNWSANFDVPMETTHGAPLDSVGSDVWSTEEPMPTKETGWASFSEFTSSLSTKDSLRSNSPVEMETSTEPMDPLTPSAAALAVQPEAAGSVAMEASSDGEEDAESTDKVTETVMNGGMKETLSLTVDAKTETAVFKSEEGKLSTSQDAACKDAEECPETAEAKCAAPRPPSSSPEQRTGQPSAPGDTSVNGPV
UniProt Q8WUF5: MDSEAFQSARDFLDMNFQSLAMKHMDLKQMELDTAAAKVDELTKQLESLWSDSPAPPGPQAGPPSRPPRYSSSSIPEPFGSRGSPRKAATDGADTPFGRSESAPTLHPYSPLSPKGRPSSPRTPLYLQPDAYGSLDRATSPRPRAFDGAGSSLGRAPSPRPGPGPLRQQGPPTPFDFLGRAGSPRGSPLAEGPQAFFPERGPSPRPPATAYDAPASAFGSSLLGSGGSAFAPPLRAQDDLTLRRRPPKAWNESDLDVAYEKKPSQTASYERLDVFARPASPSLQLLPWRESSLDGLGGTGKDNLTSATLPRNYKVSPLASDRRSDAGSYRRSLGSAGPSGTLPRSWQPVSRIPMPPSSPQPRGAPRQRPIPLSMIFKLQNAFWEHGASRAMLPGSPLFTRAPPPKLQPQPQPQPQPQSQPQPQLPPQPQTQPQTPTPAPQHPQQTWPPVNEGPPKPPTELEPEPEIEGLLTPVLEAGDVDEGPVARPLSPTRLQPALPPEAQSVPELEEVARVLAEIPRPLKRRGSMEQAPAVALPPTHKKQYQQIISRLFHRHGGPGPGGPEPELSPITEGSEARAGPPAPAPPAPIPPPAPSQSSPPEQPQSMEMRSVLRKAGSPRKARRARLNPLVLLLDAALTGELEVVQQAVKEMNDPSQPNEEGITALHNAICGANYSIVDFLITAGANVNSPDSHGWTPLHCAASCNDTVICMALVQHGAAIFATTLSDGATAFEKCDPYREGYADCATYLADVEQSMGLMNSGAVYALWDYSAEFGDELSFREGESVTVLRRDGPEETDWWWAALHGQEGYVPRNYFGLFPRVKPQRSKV
UniProt O75400: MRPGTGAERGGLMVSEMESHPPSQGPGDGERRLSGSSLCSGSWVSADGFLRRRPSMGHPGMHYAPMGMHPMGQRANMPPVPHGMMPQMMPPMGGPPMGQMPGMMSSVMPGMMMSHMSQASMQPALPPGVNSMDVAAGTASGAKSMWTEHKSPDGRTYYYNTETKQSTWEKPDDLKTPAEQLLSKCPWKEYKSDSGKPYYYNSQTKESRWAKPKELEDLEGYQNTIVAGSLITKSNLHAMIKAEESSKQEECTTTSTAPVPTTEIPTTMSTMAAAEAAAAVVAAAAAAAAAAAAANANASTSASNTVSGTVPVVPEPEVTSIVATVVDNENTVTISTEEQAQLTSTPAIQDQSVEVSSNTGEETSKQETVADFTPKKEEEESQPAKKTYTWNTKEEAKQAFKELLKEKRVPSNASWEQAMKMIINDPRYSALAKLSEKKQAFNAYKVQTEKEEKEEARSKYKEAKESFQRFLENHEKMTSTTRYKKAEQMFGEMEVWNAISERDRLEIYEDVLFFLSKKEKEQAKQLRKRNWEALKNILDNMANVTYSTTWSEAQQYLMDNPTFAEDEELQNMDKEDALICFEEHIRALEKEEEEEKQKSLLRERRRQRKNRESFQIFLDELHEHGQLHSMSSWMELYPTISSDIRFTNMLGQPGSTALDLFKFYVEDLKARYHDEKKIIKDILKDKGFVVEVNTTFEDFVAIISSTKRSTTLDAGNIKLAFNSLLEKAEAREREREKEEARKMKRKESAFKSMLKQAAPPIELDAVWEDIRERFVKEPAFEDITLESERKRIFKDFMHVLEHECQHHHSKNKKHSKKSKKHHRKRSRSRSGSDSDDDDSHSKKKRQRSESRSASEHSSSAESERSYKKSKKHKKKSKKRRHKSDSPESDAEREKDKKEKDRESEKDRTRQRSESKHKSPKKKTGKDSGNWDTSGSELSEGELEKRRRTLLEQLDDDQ
UniProt Q9ULR3: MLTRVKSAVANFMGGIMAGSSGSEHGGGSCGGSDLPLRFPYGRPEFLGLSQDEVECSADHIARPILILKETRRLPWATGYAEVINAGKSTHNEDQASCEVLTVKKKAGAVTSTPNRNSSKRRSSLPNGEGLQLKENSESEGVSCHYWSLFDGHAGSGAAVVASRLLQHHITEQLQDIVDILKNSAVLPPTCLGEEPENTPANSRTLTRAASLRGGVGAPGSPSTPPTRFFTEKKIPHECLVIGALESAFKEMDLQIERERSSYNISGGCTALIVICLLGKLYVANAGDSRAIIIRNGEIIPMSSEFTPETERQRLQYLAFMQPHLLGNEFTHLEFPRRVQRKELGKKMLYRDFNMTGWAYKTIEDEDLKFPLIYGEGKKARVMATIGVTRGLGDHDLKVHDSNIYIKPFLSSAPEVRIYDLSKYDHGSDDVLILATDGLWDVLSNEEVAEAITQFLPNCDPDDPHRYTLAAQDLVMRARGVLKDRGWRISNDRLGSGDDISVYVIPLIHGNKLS

Some of the results follow.

Compound in the first experiment: NC1(c2ccc(-c3nc4ccn5c(=O)[nH]nc5c4cc3-c3ccccc3)cc2)CCC1
The experiment is described as follows: log2 fold change, soluble protein after heating vs DMSO (PISA); higher = thermal stabilisation; K562 lysate, 10 uM; active = over 0.2 and 3.5 SD of the protein, either way, in both replicates (recomputed). In a few lines: (§1)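 A 30 min treatment with 10 μM compound was applied to crude K562 extract at 1 mg/mL protein in PBS pH 7.4 with 1 mM MgCl2. Heating for 3 min spanned 48°C-58°C, after which aliquots were pooled, adjusted to 0.5% NP-40 at 4°C and spun at 21,000xg for 90 min. TMTpro 16plex LC-MS/MS of the supernatant, with channel sums equalised, gave values recorded as log-two fold change in thermal stability against solvent controls, from duplicates.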
PRKD3 (UniProt O94806): the log2 fold change was inactive: 0.054.

In the case of PPP1R12B isoform 6 (UniProt O60237), the log2 fold change was inactive: -0.075.

For PPP1R3D (UniProt O95685), the log2 fold change is inactive: 0.106.

Consider PPP1R3E (UniProt Q9H7J1), for which the log2 fold change was inactive: -0.028.

For PPP1R16A (UniProt Q96I34), the log2 fold change is inactive: -0.115.

As to PROSER3 (UniProt Q2NL68), the log2 fold change is inactive: 0.06.

Consider PRKDC (UniProt P78527), for which the log2 fold change was inactive: -0.073.

Regarding PRDM2 (UniProt Q13029), the log2 fold change was inactive: -0.08.

For the target PPME1 (UniProt Q9Y570), the log2 fold change is inactive: 0.027.

Consider PPIP5K2 (UniProt H0Y9S9), for which the log2 fold change was inactive: 0.052.

As for PPP6R3 isoform 2 (UniProt Q5H9R7), the log2 fold change is inactive: 0.425.

Consider PPP1R13L (UniProt Q8WUF5), for which the log2 fold change is inactive: 0.02.

PPP1R14A, A0A0B4J2A3: the log2 fold change is inactive: -0.347.

In the case of PRPF40A isoform 3 (UniProt O75400), the log2 fold change is inactive: 0.029.

Consider PRDM10 isoform 6 (UniProt Q9NQV6), for which the log2 fold change was inactive: -0.038.

In the case of PPP2R5B (UniProt Q15173), the log2 fold change is inactive: -0.015.

In the case of PPM1H (UniProt Q9ULR3), the log2 fold change is inactive: -0.07.

Compound in another experiment: NCC(=O)Nc1ccc(-n2nc(C(F)(F)F)cc2-c2ccc3c(ccc4ccccc43)c2)cc1
The description is as above. The gist of the method:
as §1
As for PRKD3 (UniProt O94806), the log2 fold change is inactive: -0.116.

As for PPP1R12B isoform 6 (UniProt O60237), the log2 fold change is inactive: 0.168.

Regarding PPP1R3D (UniProt O95685), the log2 fold change was inactive: -0.025.

As to PPP1R16A (UniProt Q96I34), the log2 fold change is inactive: 0.057.

Take PROSER3 (UniProt Q2NL68): the log2 fold change was inactive: 0.05.

For the target PRMT2 (UniProt P55345), the log2 fold change is inactive: 0.046.

For PRELID1 (UniProt Q9Y255), the log2 fold change is inactive: 0.107.

Consider PRKDC (UniProt P78527), for which the log2 fold change was inactive: -0.089.

On to PPTC7 (UniProt Q8NI37), for which the log2 fold change is inactive: 0.135.

In the case of PRDM2 (UniProt Q13029), the log2 fold change is inactive: 0.035.

On to PRKX (UniProt P51817), for which the log2 fold change is inactive: -0.194.

On to PPIP5K2 (UniProt H0Y9S9), for which the log2 fold change was inactive: 0.005.

Regarding PPP1R13L (UniProt Q8WUF5), the log2 fold change was inactive: -0.001.

With PRDM10 isoform 6 (UniProt Q9NQV6), the log2 fold change is inactive: 0.048.

As to PPP2R5B (UniProt Q15173), the log2 fold change is inactive: 0.077.

In the case of PPM1H (UniProt Q9ULR3), the log2 fold change was inactive: -0.004.

Compound in a further experiment: O=C(CCCCCCC(=O)Nc1ccccc1)NO [vorinostat]
The experiment is described as above. The gist of the method: as §1
As to PRKD3 (UniProt O94806), the log2 fold change was inactive: -0.182.

For the target PPP1R12B isoform 6 (UniProt O60237), the log2 fold change is inactive: -0.063.

As to PPP1R3D (UniProt O95685), the log2 fold change is inactive: -0.115.

Take PPP1R3E (UniProt Q9H7J1): the log2 fold change was inactive: 0.02.

Consider PPP1R16A (UniProt Q96I34), for which the log2 fold change was inactive: -0.06.

On to PROSER3 (UniProt Q2NL68), for which the log2 fold change is inactive: -0.596.

PRKDC (UniProt P78527): the log2 fold change is active: -0.426.

On to PRDM2 (UniProt Q13029), for which the log2 fold change is inactive: 0.018.

Regarding PPME1 (UniProt Q9Y570), the log2 fold change is active: -0.673.

As to PPIP5K2 (UniProt H0Y9S9), the log2 fold change was inactive: -0.332.

Regarding PPP6R3 isoform 2 (UniProt Q5H9R7), the log2 fold change is inactive: 0.265.

Consider PPP1R13L (UniProt Q8WUF5), for which the log2 fold change is inactive: 0.089.

Turning to PPP1R14A, A0A0B4J2A3, the log2 fold change was inactive: 0.118.

PRPF40A isoform 3 (UniProt O75400): the log2 fold change was inactive: 0.017.

Consider PRDM10 isoform 6 (UniProt Q9NQV6), for which the log2 fold change is inactive: -0.019.

In the case of PPP2R5B (UniProt Q15173), the log2 fold change was inactive: -0.075.

As to PPM1H (UniProt Q9ULR3), the log2 fold change is inactive: 0.206.

Compound in the next experiment: O=C(O)c1ccc2c(c1)nc(Nc1cccc(Cl)c1)c1ccncc12 [silmitasertib]
The description is as above. The gist of the method: as §1
In the case of PRKD3 (UniProt O94806), the log2 fold change was inactive: 0.224.

Consider PPP1R12B isoform 6 (UniProt O60237), for which the log2 fold change was inactive: 0.091.

In the case of PPP1R3D (UniProt O95685), the log2 fold change is inactive: 0.037.

For PPP1R3E (UniProt Q9H7J1), the log2 fold change is inactive: -0.01.

Take PPP1R16A (UniProt Q96I34): the log2 fold change was inactive: -0.247.

In the case of PROSER3 (UniProt Q2NL68), the log2 fold change was inactive: 0.146.

In the case of PRKDC (UniProt P78527), the log2 fold change was active: 0.762.

On to PRDM2 (UniProt Q13029), for which the log2 fold change is inactive: 0.18.

Take PPME1 (UniProt Q9Y570): the log2 fold change is inactive: 0.185.

As to PPIP5K2 (UniProt H0Y9S9), the log2 fold change was inactive: 0.054.

On to PPP6R3 isoform 2 (UniProt Q5H9R7), for which the log2 fold change was inactive: -0.008.

As to PPP1R13L (UniProt Q8WUF5), the log2 fold change is inactive: -0.048.

In the case of PPP1R14A, A0A0B4J2A3, the log2 fold change is inactive: -0.152.

Regarding PRPF40A isoform 3 (UniProt O75400), the log2 fold change was inactive: -0.059.

For PRDM10 isoform 6 (UniProt Q9NQV6), the log2 fold change is inactive: -0.023.

Take PPP2R5B (UniProt Q15173): the log2 fold change is inactive: -0.007.

Take PPM1H (UniProt Q9ULR3): the log2 fold change is inactive: -0.05.
